Values from PubChem BioAssay AID1259405 (NCATS, 2018)

Assay: 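Knock-downs that lift recombinant protein yield in hamster ovary cells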 (primary screen)
Cell system: Chinese hamster CHO-K1 ovary cells with stable secreted eGFP expression
Reagents: single siRNA against mouse genes, 0.8 pmol siRNA per well (2 µl of 400 nM stock)
Time to read-out: 3 days
Detection: 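Per-well intracellular GFP measured by laser scanning cytometry, plus viability from ATP luminescence, each relative to plate median of non-targeting control wells, in %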
Direction: GFP, % of control: higher = more GFP per well, higher productivity; viability (ATP), % of control: higher = more viable cells (more ATP)
Rule for the call: 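a knock-down is called active if GFP reaches 120% or more of non-targeting control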
This is a random part of about 50,000 reagents tested. About 4,000 of all reagents (8%) were called active. 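Mouse siRNA library applied to hamster cells; one well for each siRNA.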 The numbers tell different reagents against one gene apart.

Foxp1 #1 — GFP, % of control: 65.3; viability (ATP), % of control: 82.5; activity call: inactive
Foxp1 #2 — GFP, % of control: 67.3; viability (ATP), % of control: 40.7; activity call: inactive
Foxp1 #3 — GFP, % of control: 81.3; viability (ATP), % of control: 93; activity call: inactive
Cep57l1 #1 — GFP, % of control: 76.8; viability (ATP), % of control: 85.9; activity call: inactive
Cep57l1 #2 — GFP, % of control: 126; viability (ATP), % of control: 69.5; activity call: active
Cep57l1 #3 — GFP, % of control: 108; viability (ATP), % of control: 131; activity call: inactive
Carmil3 #1 — GFP, % of control: 66.4; viability (ATP), % of control: 57.1; activity call: inactive
Carmil3 #2 — GFP, % of control: 79.3; viability (ATP), % of control: 85.2; activity call: inactive
Carmil3 #3 — GFP, % of control: 140; viability (ATP), % of control: 129; activity call: active
Rnf6 #1 — GFP, % of control: 98.7; viability (ATP), % of control: 124; activity call: inactive
Rnf6 #2 — GFP, % of control: 54.4; viability (ATP), % of control: 74.9; activity call: inactive
Rnf6 #3 — GFP, % of control: 76.5; viability (ATP), % of control: 117; activity call: inactive
Serpinb9e #1 — GFP, % of control: 66.3; viability (ATP), % of control: 81.9; activity call: inactive
Serpinb9e #2 — GFP, % of control: 66.4; viability (ATP), % of control: 74.7; activity call: inactive
Serpinb9e #3 — GFP, % of control: 130; viability (ATP), % of control: 110; activity call: active
F2r #1 — GFP, % of control: 116; viability (ATP), % of control: 125; activity call: inactive
F2r #2 — GFP, % of control: 45.9; viability (ATP), % of control: 71.5; activity call: inactive
F2r #3 — GFP, % of control: 66.8; viability (ATP), % of control: 87; activity call: inactive
Alg14 #1 — GFP, % of control: 98.2; viability (ATP), % of control: 83.2; activity call: inactive
Alg14 #2 — GFP, % of control: 74.2; viability (ATP), % of control: 70.6; activity call: inactive
Alg14 #3 — GFP, % of control: 35.9; viability (ATP), % of control: 43.4; activity call: inactive
Neurod4 #1 — GFP, % of control: 123; viability (ATP), % of control: 79.8; activity call: active
Neurod4 #2 — GFP, % of control: 94.7; viability (ATP), % of control: 73.4; activity call: inactive
Neurod4 #3 — GFP, % of control: 90.7; viability (ATP), % of control: 99.8; activity call: inactive
Or5p81 #1 — GFP, % of control: 53.6; viability (ATP), % of control: 84.9; activity call: inactive
Or5p81 #2 — GFP, % of control: 82.8; viability (ATP), % of control: 62; activity call: inactive
Or5p81 #3 — GFP, % of control: 46.7; viability (ATP), % of control: 68.3; activity call: inactive
Frg1 #1 — GFP, % of control: 63.9; viability (ATP), % of control: 71.5; activity call: inactive
Frg1 #2 — GFP, % of control: 61.4; viability (ATP), % of control: 68.6; activity call: inactive
Frg1 #3 — GFP, % of control: 87.2; viability (ATP), % of control: 68.3; activity call: inactive
Arhgef3 #1 — GFP, % of control: 65.1; viability (ATP), % of control: 68.6; activity call: inactive
Arhgef3 #2 — GFP, % of control: 75.4; viability (ATP), % of control: 87; activity call: inactive
Arhgef3 #3 — GFP, % of control: 74.5; viability (ATP), % of control: 84; activity call: inactive
Dok2 #1 — GFP, % of control: 64.3; viability (ATP), % of control: 80.7; activity call: inactive
Dok2 #2 — GFP, % of control: 77; viability (ATP), % of control: 75.3; activity call: inactive
Dok2 #3 — GFP, % of control: 65.7; viability (ATP), % of control: 74.9; activity call: inactive
Bhlha15 #1 — GFP, % of control: 65.3; viability (ATP), % of control: 87.3; activity call: inactive
Bhlha15 #2 — GFP, % of control: 122; viability (ATP), % of control: 78.2; activity call: active
Bhlha15 #3 — GFP, % of control: 98.2; viability (ATP), % of control: 101; activity call: inactive
Cts3 #1 — GFP, % of control: 77.5; viability (ATP), % of control: 33.6; activity call: inactive
Cts3 #2 — GFP, % of control: 48.4; viability (ATP), % of control: 63.4; activity call: inactive
Cts3 #3 — GFP, % of control: 85.1; viability (ATP), % of control: 86; activity call: inactive
Cmtr2 #1 — GFP, % of control: 84.4; viability (ATP), % of control: 101; activity call: inactive
Cmtr2 #2 — GFP, % of control: 99.8; viability (ATP), % of control: 81.4; activity call: inactive
Cmtr2 #3 — GFP, % of control: 137; viability (ATP), % of control: 135; activity call: active
Abca5 #1 — GFP, % of control: 54.5; viability (ATP), % of control: 82.9; activity call: inactive
Abca5 #2 — GFP, % of control: 63.1; viability (ATP), % of control: 62.4; activity call: inactive
Abca5 #3 — GFP, % of control: 104; viability (ATP), % of control: 91.4; activity call: inactive
Mtif3 #1 — GFP, % of control: 80; viability (ATP), % of control: 57.6; activity call: inactive
Mtif3 #2 — GFP, % of control: 80.8; viability (ATP), % of control: 27.3; activity call: inactive
Mtif3 #3 — GFP, % of control: 93.5; viability (ATP), % of control: 49.4; activity call: inactive
Rpl7a #1 — GFP, % of control: 86.4; viability (ATP), % of control: 117; activity call: inactive
Rpl7a #2 — GFP, % of control: 111; viability (ATP), % of control: 88.9; activity call: inactive
Rpl7a #3 — GFP, % of control: 104; viability (ATP), % of control: 81.8; activity call: inactive

Single entries from the list:
Cep57l1 #1, GFP, % of control: 76.8
Abca5 #3, viability (ATP), % of control = 91.4
Under “GFP, % of control”, Or5p81 #3 has 46.7
Or5p81 #1, viability (ATP), % of control = 84.9
Entry of Abca5 #2 in “activity call”: inactive
Value of Serpinb9e #3 in “viability (ATP), % of control”: 110
